Reference: PubChem BioAssay AID2685 (National Center for Advancing Translational Sciences (NCATS), 2010)
The other results are listed elsewhere or left out. Shown are side measurements of this screen, not its main read-out; they come without a call. Most of these compounds were active or inconclusive in the main read-out, so they are no random draw. Potencies come from curve fits of mixed quality, noted in brackets.

Test: qHTS Assay for Lipid Storage Modulators in Drosophila S3 Cells;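 as to cell number change: cells counted by Cell Tracker Red CMTPX staining in the red channel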
Details: BODIPY lipid droplet fluorescence, 18-24 h; for cell number change: measured here: cell count max response, cells fed with added oleic acid
Summary of the method: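 Drosophila S3 cells got compounds at several concentrations plus oleic acid (400 uM solution). Laser-scanning cytometry with 488 nm excitation read lipid droplets at 500-530 nm and cells at 575-640 nm. Percent activity was relative to 20 uM Triacsin C.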

[1] = measured here: cell number channel AC50, cells fed with added oleic acid
[2] = measured here: lipid fluorescence (Fed channel) AC50, cells fed with added oleic acid

| Structure (SMILES) | AC50 [1] | cell number change [%] | AC50 [2] |
| --- | --- | --- | --- |
| CC(=O)Nc1ccc(S(=O)(=O)NC2CC(=O)N(c3cccc(F)c3)C2)cc1 (stereo not given) | 2.59 µM [rising, single point] |  |  |
| Cc1nc(CNS(=O)(=O)c2ccc(Br)cc2)cs1 |  | -6.02 | 6.51 µM [falling, single point] |
| C[N+]1(CC(=O)Nc2ccccc2Cl)CCN(C(=O)c2cccs2)CC1 | 29.1 µM [falling, single point] | -32.5 | 1.46 µM [falling, full curve, poor fit] |
| Cc1cccc(Nc2nnc(SCC(=O)c3c(N)n(C4CC4)c(=O)[nH]c3=O)s2)c1C |  | -2.14 | 13 µM [rising, partial curve] |
| COc1cc(/C=C(\C#N)c2nc3c(s2)CC(C)CC3)ccc1O (stereo not given) |  | -27.9 | 23.1 µM [falling, single point] |
| C/C(Cn1cnc([N+](=O)[O-])n1)=N\NC(=O)c1ccc(Br)cc1 |  | 17.2 | 11.6 µM [rising, partial curve] |
| CN1CCN(C(=O)CN(Cc2ccccc2)S(C)(=O)=O)CC1 |  | 19 | 5.8 µM [falling, full curve] |
| Cc1nn2cc(-c3ccc(N)cc3)nc2s1 |  | -12.5 |  |
| CCc1nn2c(=O)c(S(=O)(=O)Nc3ccccc3)c(C)nc2s1 |  | -2.63 | 6.31 µM [falling, partial curve, poor fit] |
| O=C(CC(c1ccccc1)c1ccccc1O)NCCc1ccccc1 (stereo not given) |  | 25.7 | 29.1 µM [rising, single point] |
| CCOC(=O)c1c(-c2ccc(C)cc2)csc1NC(=O)C1CC=CCC1C(=O)O (stereo not given) |  | -1.79 |  |
| O=C(CSc1nnc(NC(=O)C2CCC2)s1)NC1CC1 |  | 0.415 | 0.82 µM [falling, single point] |
| C/C(CC(=O)Nc1cc(C)ccn1)=N\NC(=O)c1ccccc1C |  | 28.5 | 29.1 µM [rising, single point] |
| CC(=O)c1c(C)nn(C(=O)c2cccs2)c1C | 0.0517 µM [falling, full curve, poor fit] | -16.6 | 23.1 µM [rising, single point] |
| Cc1cccc(NC(=O)c2ccc3c(c2)CCN3S(C)(=O)=O)c1 |  | -7.97 | 32.6 µM [rising, single point] |
| CC(=O)c1ccc(NC(=O)c2ccc3nc(-c4ccco4)c(-c4ccco4)nc3c2)cc1 | 29.1 µM [falling, single point] | -77.8 | 6.51 µM [rising, single point] |
| O=C(CCc1ccccc1)NNC(=O)Nc1ccc(Br)cc1 | 0.13 µM [rising, full curve, poor fit] | 4.91 |  |
| CN(CC(=O)Nc1c(Cl)cccc1Cl)C(=O)Cn1[nH]c(=O)c2ccccc2c1=O | 0.82 µM [falling, partial curve] | -3.31 |  |
| COc1ccc2c(CCNC(=O)c3ccco3)c[nH]c2c1 |  | -12.2 |  |
| COc1ccc2oc(=O)c(/C(C)=N/Nc3ccccc3)cc2c1 | 0.651 µM [falling, single point] | -4.53 | 0.411 µM [falling, partial curve, poor fit] |

| Structure (SMILES) | AC50 [1] | cell number change [%] | AC50 [2] |
| --- | --- | --- | --- |
| CCN1CCN(c2ccc(S(=O)(=O)N3CCCCC3)cc2NC(=O)c2cccc(Cl)c2)CC1 | 18.4 µM [rising, partial curve] | 85.9 |  |
| Cc1cc(OCC(=O)Nc2ccccc2N2CCOCC2)c(C(C)C)cc1Cl |  | -0.859 | 1.46 µM [falling, partial curve] |
| COC(=O)C1(CC2CC(c3cccc(Br)c3)=NO2)CCN(C(=O)OC(C)(C)C)CC1 (stereo not given) |  | 16.8 | 18.4 µM [rising, single point] |
| Cc1cc(C)cc(OCC(=O)NCc2cc(C)nc3ccccc23)c1 |  | 12 | 29.1 µM [rising, single point] |
| COc1ccc(C(=O)Nc2cc(C)nn2-c2ccc(F)cc2)cc1 |  | -19 | 0.651 µM [rising, single point] |
| O=C(NCc1ccccc1F)c1cccs1 |  | -3 | 10.3 µM [falling, partial curve] |
| CCc1nonc1NC(=O)c1oc2cc(C)c(C)cc2c1C |  | 7.6 | 29.1 µM [rising, single point] |
| CN1CCN(S(=O)(=O)c2ccc(N3CCN(c4ccccc4Cl)CC3)nc2)CC1 |  | -7.65 | 6.51 µM [falling, single point] |
| CC1(C)N=C(c2ccc(Cl)cc2)C(=O)N1 | 0.58 µM [falling, full curve, poor fit] | 3.77 | 0.259 µM [falling, full curve] |
| CC(Sc1ccccc1)C(=O)NNC(=O)c1ccncc1 (stereo not given) |  | 1.92 | 23.1 µM [rising, single point] |
| CCOC(=O)C(Cc1ccccc1)NC(=O)Cn1nnc(-c2ccc(SC)cc2)n1 (stereo not given) |  | -15 |  |
| COCCNC(=O)c1cn(Cc2c(F)cccc2Cl)nn1 |  | -20.4 | 3.66 µM [falling, full curve, poor fit] |
| COc1ccc(S(=O)(=O)Nc2c(C)cccc2C)cc1-n1cnnn1 |  | 19.7 |  |
| O=C(NCCNS(=O)(=O)c1ccccc1)c1cc(OCC(F)(F)F)ccc1OCC(F)(F)F |  | -29.5 |  |
| Fc1ccccc1CSc1nc2ccccc2[nH]1 | 16.4 µM [rising, partial curve] | 107 | 20.6 µM [rising, partial curve] |
| CCCCCOc1ccc(N2C(=O)C(C)CNC2=S)cc1 (stereo not given) | 18.4 µM [falling, single point] | -52.3 | 29.1 µM [falling, single point] |
| C/C(=N/Nc1nc(-c2ccccc2)cc(-c2ccccc2)n1)c1ccc(N)cc1 |  | -23.4 | 18.4 µM [falling, single point] |
| COc1ccc(S(=O)(=O)Cc2ccc(C(=O)NCCc3ccc(S(N)(=O)=O)cc3)o2)cc1 | 29.1 µM [rising, single point] | 33.8 | 0.116 µM [rising, full curve, poor fit] |
| CCNc1nc(NCC)nc(N(CC)C(N)=S)n1 |  | 15.1 | 20.6 µM [rising, single point] |
| COc1ccc(C(=O)N/N=C(\C)CC(=O)Nc2ccccn2)cc1OC |  | -3.95 | 3.55 µM [rising, full curve] |

Two entries from above, reformatted:
CCOC(=O)C(Cc1ccccc1)NC(=O)Cn1nnc(-c2ccc(SC)cc2)n1 (stereo not given)
  cell number change [%]: -15
COc1ccc(S(=O)(=O)Cc2ccc(C(=O)NCCc3ccc(S(N)(=O)=O)cc3)o2)cc1
  AC50 [1]: 29.1 µM [rising, single point]; cell number change [%]: 33.8; AC50 [2]: 0.116 µM [rising, full curve, poor fit]

(listing goes on)

| Structure (SMILES) | AC50 [1] | cell number change [%] | AC50 [2] |
| --- | --- | --- | --- |
| O=C(O)CN1CCNCC1 |  | -13.3 | 0.517 µM [falling, single point] |
| O=C(COc1ccccc1)Nc1c(C(=O)N2CCC(N3CCCCC3)CC2)oc2ccccc12 |  | -4.75 | 4.11 µM [rising, full curve, poor fit] |
| COC(=O)C1=CN(c2ccc(F)cc2)C=C(C(=O)OC)C1c1ccc([N+](=O)[O-])cc1 |  | 34.7 |  |
| CC1CCN(Cc2cc(=O)oc3ccc(C(C)C)cc23)CC1 | 7.31 µM [rising, partial curve, poor fit] | 51.4 | 29.1 µM [rising, single point] |
| O=C(CSCCO)Nc1cccc(C(F)(F)F)c1 |  | -1.01 | 0.326 µM [falling, full curve] |
| COc1ccccc1NC(=O)Cn1ncc2c1-c1ccccc1OC2 |  |  | 1.84 µM [rising, partial curve] |
| Cc1nn(Cc2c(F)c(F)c(F)c(F)c2F)c(C)c1NC(=O)c1nn(C)cc1Br |  | -2.31 | 0.092 µM [falling, full curve, poor fit] |
| O=C1C=C(c2cccc3c2sc2ccccc23)C[C@@H](c2ccc(F)cc2)C1 |  | 20.9 | 0.651 µM [rising, full curve, poor fit] |
| CCOC(=O)N/N=C/C=C/c1ccccc1 | 0.00517 µM [rising, full curve, poor fit] | -5.78 |  |
| CC(=O)c1ccc(NC(=S)Nc2cccc3ccccc23)cc1 |  | 0.495 | 29.1 µM [rising, single point] |
| CCOc1cc(CNc2ccc(S(N)(=O)=O)cc2)ccc1OCC(=O)NC(C)(C)C | 6.31 µM [falling, single point] | 1.44 | 2.82 µM [falling, single point] |
| O=C1N=C(N2CCOCC2)S/C1=C/c1cc2c(cc1[N+](=O)[O-])OCO2 |  | 0.0261 | 0.146 µM [rising, partial curve, poor fit] |
| CCc1ccc(NC(=O)CSc2nnc(-c3ccccn3)n2C)cc1 |  | 5.91 | 4.61 µM [rising, partial curve] |
| CCOC(=O)c1[nH]c2ccc(Br)cc2c1NC(=O)CCN1CCN(C(=O)OCC)CC1 |  | -23.3 | 0.651 µM [falling, single point] |
| CCOC(=O)C1(CCCc2ccccc2)CCN(C(=O)COC)CC1 |  | 15.7 | 2.59 µM [rising, full curve, poor fit] |
| CCN(Cc1nc(-c2cccc(C)c2)no1)C(=O)c1ccco1 | 5.17 µM [rising, full curve, poor fit] | 35.7 | 29.1 µM [rising, partial curve] |
| O=C(CCCn1cnc([N+](=O)[O-])n1)Nc1cccc(Cl)c1Cl |  | 9.15 | 29.1 µM [rising, single point] |
| N#Cc1c(N2CCN(C(=O)c3ccccc3)CC2)nc(-c2ccccc2)c2c1CCCC2 | 2.31 µM [rising, single point] |  | 23.1 µM [rising, single point] |
| Cc1cc(-c2csc3nc[nH]c(=S)c23)cc(C)c1C |  | -24.3 | 32.6 µM [falling, partial curve, poor fit] |
